Reference: the supplement of paper PMC5949888
± gives the standard deviation of the averaged measurements. Most values lie at the floor of the assay. Slopes are relative: functional sequences can read slightly below zero.

system: Saccharomyces cerevisiae PS128 hsf1 delta, HSF1(1-493) fusion; experiment: growth estimate (transactivation domain function in HSF1 fusion, heat-shock survival) (a.u. (slope of normalised read count over time)); higher = stronger growth at 37°C, i.e. more transactivation activity; conditions: library: random library

Substance | growth estimate
RSKRLRDYPFRST | < -0.25
RSKSARRLSRDRPIWQRLRS | < -0.25
RSLAPMRKTACNRTITISGV | < -0.25
RSLRIGCGTKRATQKARLRS | < -0.25
RSLRRGIPAS | < -0.25
RSLSKWPGCRKSTYTTNRAP | < -0.25
RSLVHWD | < -0.25
RSMFRRAHFRV | < -0.25
RSMPGGCVGFCIAGERTIPC | -0.243
RSN | < -0.25
RSNGKPPTGGRGA | < -0.25
RSPAGCILCRVVFQP | < -0.25
RSPDPMGSRLLAASLVLRYK | -0.246
RSPEQVRRALVLQRFRSTTE | < -0.25
RSPLYEDASKVSHS | < -0.25
RSPQRRMKFAGSGV | < -0.25
RSQESESRF | < -0.25
RSQESSS | < -0.25
RSR | < -0.25
RSRCSEVYVW | < -0.25
RSRFLCALGTDCRISSRIRP | < -0.25
RSRGHVKVEDYGVEVKLHVH | < -0.25
RSRGWPVKPATALCVRS | < -0.25
RSRLLAVTDIFS | < -0.25
RSRLQPEVKMGSNRCIAALR | < -0.25

Substance | growth estimate
RSRSRGAVSSVYAVVTAGVQ | < -0.25
RSRYKRWSALIQPKVASSHI | < -0.25
RSSCPVSLHLQK | < -0.25
RSSCWNSIVWHRI | < -0.25
RSSEGANRIQMVHPGL | -0.246
RSSKDSLLPTYCEVHVDHRS | < -0.25
RSSRSLISSVVSWYNEKLEP | < -0.25
RSTAM | < -0.25
RSTAVIICCSMKIRIRGDQP | < -0.25
RSTRFCFKPRQ | < -0.25
RSTRGATSQQVRSRHSLSVV | < -0.25
RSTRKVCDRPTYVRWLASEA | < -0.25
RSTVNIPR | < -0.25
RSVFD | < -0.25
RSVGSSPT | < -0.25
RSVIISSPGEGRESAYFPRI | < -0.25
RSVLRGATYVII | < -0.25
RSVMVF | < -0.25
RSVNNVRATSTL | < -0.25
RSVSGNPRSIGTELPGNRCL | < -0.25
RSWIQWNDEGSI | -0.205
RSWNDVNAIAKLIVQSHSSA | < -0.25
RSWNS | < -0.25
RSWRSDIIHGS | < -0.25
RSYQPSVNGRGQCQANCRVT | < -0.25

Shown tab-delimited: part of the list above
Substance	growth estimate
RSR	< -0.25
RSRCSEVYVW	< -0.25
RSRFLCALGTDCRISSRIRP	< -0.25
RSRGHVKVEDYGVEVKLHVH	< -0.25
RSRGWPVKPATALCVRS	< -0.25
RSRLLAVTDIFS	< -0.25
RSRLQPEVKMGSNRCIAALR	< -0.25
RSRSRGAVSSVYAVVTAGVQ	< -0.25
RSRYKRWSALIQPKVASSHI	< -0.25
RSSCPVSLHLQK	< -0.25
RSSCWNSIVWHRI	< -0.25
RSSEGANRIQMVHPGL	-0.246
RSSKDSLLPTYCEVHVDHRS	< -0.25
RSSRSLISSVVSWYNEKLEP	< -0.25
RSTAM	< -0.25
RSTAVIICCSMKIRIRGDQP	< -0.25
RSTRFCFKPRQ	< -0.25
RSTRGATSQQVRSRHSLSVV	< -0.25
RSTRKVCDRPTYVRWLASEA	< -0.25
RSTVNIPR	< -0.25
RSVFD	< -0.25
RSVGSSPT	< -0.25
RSVIISSPGEGRESAYFPRI	< -0.25
RSVLRGATYVII	< -0.25
RSVMVF	< -0.25
RSVNNVRATSTL	< -0.25
RSVSGNPRSIGTELPGNRCL	< -0.25
RSWIQWNDEGSI	-0.205
RSWNDVNAIAKLIVQSHSSA	< -0.25

(list continues)

Substance | growth estimate
RTAAIF | < -0.25
RTAIASHEGHFIKADGSTRH | < -0.25
RTASGLC | < -0.25
RTC | < -0.25
RTCH | -0.245
RTDIVTAGKRTIRSRYSCSQ | < -0.25
RTDNITRHGSWNY | < -0.25
RTESRSRSRLHRPDNS | < -0.25
RTF | -0.224 ± 0.037
RTGIGCYESYNKTFGY | < -0.25
RTGPGGF | < -0.25
RTGVTVNRFQMEDLDLPRPE | < -0.25
RTHRCLTPLRAQDLAYGGPS | < -0.25
RTIKPKVVNQCWRLSTYVMG | < -0.25
RTILSLVIEISVVPNVGGPD | < -0.25
RTIPGRYCRRTRKSDSKTRR | < -0.25
RTIRKCNYNMPMADACPWYG | < -0.25
RTKA | -0.241
RTKGWGQPS | -0.246
RTKLRISGLQNPNRSRCLIP | -0.246
RTKREGCV | < -0.25
RTKVEVVGRFHERYSCTSRV | < -0.25
RTLRNCKGCANLAIWTSFDI | < -0.25
RTLVASKCRIPLNRYYVVSA | -0.234
RTNTISPGSRRRISYIQYPM | < -0.25

Substance | growth estimate
RTPIRRWGTYRAQRGSSLRA | < -0.25
RTPR | < -0.25
RTQALTGLVRQDRKIGREHL | < -0.25
RTQVVSVKWQRGTREVPVVR | < -0.25
RTRD | < -0.25
RTRDELRRPKRPGSRGLAGL | < -0.25
RTRLSSLLDPGLIKCPIRQR | < -0.25
RTRSEKACLGYNMFPVPLIQ | -0.243
RTRVERSLRRLRVSGSHRIP | < -0.25
RTSAFALKGSPPFLMY | < -0.25
RTSG | < -0.25
RTSGPEKKVFGIACVNRTRP | < -0.25
RTSIISPLLHVGGGSRSWQV | < -0.25
RTSVGLSCLDAVHSLLLVVG | < -0.25
RTTEPTRPCFWR | -0.243
RTVHG | < -0.25
RTVMEGASNSYV | < -0.25
RTVRSQRVSQPLKPFHLRSR | < -0.25
RTWGGIELINVVTNLSRAEL | < -0.25
RTWNPVMCVKTTCVYGFGGP | < -0.25
RTYSMH | < -0.25
RVADSYQIMNRR | < -0.25
RVAEDAVKLQSIQRFTSIGT | < -0.25
RVAEKPGCLWALGVAHDDLQ | -0.243
